Data from PMC4977710.

Sequences of proteins named here, by UniProt entry; tags and fusion partners are left off. A change or cut given only in a name is not applied to a line headed by its entry.
UniProt Q5CSA5: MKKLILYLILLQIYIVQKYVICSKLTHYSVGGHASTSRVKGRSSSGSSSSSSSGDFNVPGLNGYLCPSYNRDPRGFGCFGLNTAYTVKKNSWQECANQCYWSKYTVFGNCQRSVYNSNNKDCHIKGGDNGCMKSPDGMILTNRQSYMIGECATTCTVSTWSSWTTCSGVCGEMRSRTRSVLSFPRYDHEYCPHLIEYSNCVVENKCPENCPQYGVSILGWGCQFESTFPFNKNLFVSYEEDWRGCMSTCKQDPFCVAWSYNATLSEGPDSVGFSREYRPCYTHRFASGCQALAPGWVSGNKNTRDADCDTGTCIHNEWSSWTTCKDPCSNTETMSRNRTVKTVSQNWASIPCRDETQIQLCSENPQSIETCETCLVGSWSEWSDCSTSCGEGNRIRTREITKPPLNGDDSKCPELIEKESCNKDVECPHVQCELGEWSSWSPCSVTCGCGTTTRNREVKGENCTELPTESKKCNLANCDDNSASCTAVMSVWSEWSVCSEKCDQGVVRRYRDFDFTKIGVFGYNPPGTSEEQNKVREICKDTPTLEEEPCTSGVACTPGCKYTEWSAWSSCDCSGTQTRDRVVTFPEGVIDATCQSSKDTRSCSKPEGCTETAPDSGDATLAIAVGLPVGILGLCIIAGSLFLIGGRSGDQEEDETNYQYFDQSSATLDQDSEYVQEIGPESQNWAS

Legend:
[1] = molecular target: Cryptosporidium parvum rhomboid 1 (pGBKT7-CpROM1) (Cryptosporidium parvum) (UniProt F0X528); experiment: two-hybrid; Matchmaker GAL4 system, bait (pGBKT7) and prey (pGADT7) plasmids co-transformed into yeast AH109, 30 °C; growth on SD/-Trp/-His/-Leu/-Ade and β-galactosidase activity assay
[2] = molecular target: T1, Toxoplasma gondii rhomboid 2 (pGBKT7-TgROM2) (Toxoplasma gondii) (UniProt Q695T9); experiment: as above
T1 sequence: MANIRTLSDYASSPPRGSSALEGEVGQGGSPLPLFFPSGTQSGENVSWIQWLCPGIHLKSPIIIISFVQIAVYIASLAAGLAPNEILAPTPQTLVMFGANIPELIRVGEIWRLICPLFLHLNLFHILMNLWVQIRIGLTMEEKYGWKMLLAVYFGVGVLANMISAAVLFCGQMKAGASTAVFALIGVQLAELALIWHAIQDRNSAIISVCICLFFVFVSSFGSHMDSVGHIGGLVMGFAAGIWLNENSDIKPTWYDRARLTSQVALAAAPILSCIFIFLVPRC

Substance	binding [1]	binding [2]
A-T domain (Ala1641-Thr1816) of CpGP900 (pGADT7-CpGP900) (from UniProt O96503) (domain or fragment)	binds	–
I-S domain (Ile148-Ser687) of CpTRAP-C1 (pGADT7-CpTRAP-C1) (from UniProt Q5CSA5) (domain or fragment)	no binding	binds

No constants are given. Whether binding was seen depends on the method and setting. A result given as binding can be weak or reduced; the word gives no strength.
